Assay results taken from PMC7819943, “Rice protein-binding microarrays: a tool to detect cis-acting elements near promoter regions in rice”.
Some of the results follow.

By UniProt entry, the sequences of proteins in these tests, tags left out.
UniProt Q0JBA9, entry or part of it: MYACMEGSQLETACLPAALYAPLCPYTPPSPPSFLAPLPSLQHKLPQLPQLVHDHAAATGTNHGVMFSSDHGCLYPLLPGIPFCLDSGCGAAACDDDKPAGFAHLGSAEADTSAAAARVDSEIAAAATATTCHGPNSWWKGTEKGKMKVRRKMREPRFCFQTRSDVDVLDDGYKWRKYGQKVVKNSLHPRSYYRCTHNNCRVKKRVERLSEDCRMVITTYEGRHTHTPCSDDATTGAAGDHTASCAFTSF

Biological target: OsWRKY34 (Oryza sativa, UniProt Q0JBA9 1-250)
Assay: protein-binding microarray (RPBM); PBS, 2% BSA, 51.3 ng/ul salmon testes DNA, 50 uM zinc acetate, 200 nM TF, 25 C, 1 h; high values mean tight binding
Conditions: protein: recombinant; tags: N-terminal polyhistidine and DsRed monomer fusion (pET32a); label: CyDye5-dUTP incorporated in the synthesized complementary strand; 3' TTTTT single-stranded linker to array surface; dsDNA, one strand shown
Outline: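 Transcription factors were made in E. coli BL21-CodonPlus as N-terminal fusions to a polyhistidine tag and DsRed, then purified on Ni–NTA. After primer extension with Cy5-dUTP and blocking with 2% BSA, a custom Agilent array was exposed for 1 h at 25 °C to 200 nM protein in PBS, 2% BSA, salmon testes DNA and 50 µM zinc acetate. Washed arrays were scanned on an Axon 4000B, and the binding signal is per-feature fluorescence intensity in arbitrary units.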

Sequence | binding signal
CACTGTACTTTTTATTTTGCTCACACTGGACCAAATTACTCGGAGTCACCTAGTGCAG | 9300 fluorescence intensity (a.u.)
TACGATATGCTACATGCGGCCGCATCTGTCAAACTGTCAACGGAGTCACCTAGTGCAG | 10700 fluorescence intensity (a.u.)
ATCTGTTCCAAAATCACATCCTGATTGATTCGTAATAGTACGGAGTCACCTAGTGCAG | 8420 fluorescence intensity (a.u.)
CAAACACACAAGCGCCCACTCGTCACACGCTATACGGCACCGGAGTCACCTAGTGCAG | 9510 fluorescence intensity (a.u.)
CTTTGACTTTTCCTGCACCCCACAAAATATCGCTTTTGATCGGAGTCACCTAGTGCAG | 8620 fluorescence intensity (a.u.)
CTATTATAGCGTGTCGGACACTGACTCCTCCCATGTTCCTCGGAGTCACCTAGTGCAG | 11100 fluorescence intensity (a.u.)
GCTGTATTGGTCTTGTCTCTCCTGTGTAGTGTGTGTGCACCGGAGTCACCTAGTGCAG | 10700 fluorescence intensity (a.u.)
TGTCAGACCCATACCCCTTTAACCTCATGTTTCAAACTTCCGGAGTCACCTAGTGCAG | 8040 fluorescence intensity (a.u.)
AGGTCTTTTCCCATCTCCGCGGCCCGAAACACAAAAAACCCGGAGTCACCTAGTGCAG | 9260 fluorescence intensity (a.u.)
TTGAGTTAGTCATTGCCCATTGTTCGATATGATCTTAATTCGGAGTCACCTAGTGCAG | 8450 fluorescence intensity (a.u.)
GTGGCTGCGGCTGCGGCTCGGCTCGGGTGGTGGGAACCGACGGAGTCACCTAGTGCAG | 8260 fluorescence intensity (a.u.)
TTCCGGGTGGTGGAGAAGGTGTAGGGGTCTCGAGGTGTTCCGGAGTCACCTAGTGCAG | 12500 fluorescence intensity (a.u.)
ATCTTCAATCGTGCAGCCCTATCCTTATCCTCTTCCCAACCGGAGTCACCTAGTGCAG | 8680 fluorescence intensity (a.u.)
GACCTTCTGCCGACTCTCCACTGCTCTCTCATCTCTTCCGCGGAGTCACCTAGTGCAG | 11400 fluorescence intensity (a.u.)
ACGTGCCTTGTGATTATCTTTTCTCGTACTGCGTCGTTGGCGGAGTCACCTAGTGCAG | 8230 fluorescence intensity (a.u.)
GCCGACCGATCGGACCTTTATATACGGTCTCGTCCGATCGCGGAGTCACCTAGTGCAG | 8570 fluorescence intensity (a.u.)
GCGATGAATCTAATCAAGATTTCCTGGAACCCTCATGTATCGGAGTCACCTAGTGCAG | 9140 fluorescence intensity (a.u.)
ACGGCATATCCAGATTGTCACATCCACCCAAAATCTCTTACGGAGTCACCTAGTGCAG | 8190 fluorescence intensity (a.u.)
ACATGAGCAAATAAACAACATGCCTCTGTTACCACACTCTCGGAGTCACCTAGTGCAG | 8200 fluorescence intensity (a.u.)
CTAGATCAGGTTGTTAGCTTGCATGTGTTGAATTAGTGTGCGGAGTCACCTAGTGCAG | 8720 fluorescence intensity (a.u.)
GCGTTGAAATTTCGCGGAATTCGACCGGTTTTTGTCGGAACGGAGTCACCTAGTGCAG | 8230 fluorescence intensity (a.u.)

Sequence | binding signal
CCACATATTAATCAGCCGCACACCGTTGCCCGCCTACCACCGGAGTCACCTAGTGCAG | 12700 fluorescence intensity (a.u.)
GTTGGTTGTCTCCTCCGCCTCGAGCCAAGACCCACACCTACGGAGTCACCTAGTGCAG | 8600 fluorescence intensity (a.u.)
ACACCCGTCCTATGCCGGTTCATTTTTTTTTTATTTTCTCCGGAGTCACCTAGTGCAG | 10800 fluorescence intensity (a.u.)
CGTTGACTTTTTAGTACATGTTTGACCATTCGTCTTATTCCGGAGTCACCTAGTGCAG | 36100 fluorescence intensity (a.u.)
CAATTTTAGTTCAATCTTGGGTGTTTTCGCATGGTTCTCTCGGAGTCACCTAGTGCAG | 8180 fluorescence intensity (a.u.)
TCTCCGGCTCCACTTCGGTCTAATCCTTCTTTCCGATGCTCGGAGTCACCTAGTGCAG | 8730 fluorescence intensity (a.u.)
CCCGCCGCCAGCTTCCCGTTGACTAGGATTGTTGACCCTACGGAGTCACCTAGTGCAG | 12400 fluorescence intensity (a.u.)
GGGCACCACTACACCACCACCACTACACAGCAAGTAGTACCGGAGTCACCTAGTGCAG | 8690 fluorescence intensity (a.u.)
TATTACTTATTTTTAATTCCGAATTTTAGCTATTTTAAAACGGAGTCACCTAGTGCAG | 8770 fluorescence intensity (a.u.)
GTGTTGTGGTTGAATGGTCAGAAAAGCGGTAATGTTGGCACGGAGTCACCTAGTGCAG | 8440 fluorescence intensity (a.u.)
GGCTGTTCATTTCTGATAGACGGAGCAGATTAGCGCTAATCGGAGTCACCTAGTGCAG | 8140 fluorescence intensity (a.u.)
GGTTTTTCCTAGTTTTGAGATTTACGTGCTATTTTGTGAACGGAGTCACCTAGTGCAG | 8950 fluorescence intensity (a.u.)
GGAATTTCTCAGCTCACACGAGTCACGGACCCACCACCACCGGAGTCACCTAGTGCAG | 8960 fluorescence intensity (a.u.)
TTGTTCGCTGTGCTCCCGGCTTATACTCATACTTCGGTCTCGGAGTCACCTAGTGCAG | 9250 fluorescence intensity (a.u.)
ATCACCGCTTACACCACACCCCGTGACGTGTCACTTTCCACGGAGTCACCTAGTGCAG | 8700 fluorescence intensity (a.u.)
TGGGGAGTTAAACATATCAGGTATTGTGGTTGAAGGAGATCGGAGTCACCTAGTGCAG | 9690 fluorescence intensity (a.u.)
GTGAGAAAGTTTGTTTCGTTTTCCGCGCACATGTTTCCCGCGGAGTCACCTAGTGCAG | 8980 fluorescence intensity (a.u.)
GGCTGTGGAGGGAGGGAGCACCGGCGACGGTGGCAGGCCGCGGAGTCACCTAGTGCAG | 12000 fluorescence intensity (a.u.)
ACACCCTCGTACATTTCTCCTGCTCATCTGTTTTCTTCGACGGAGTCACCTAGTGCAG | 13600 fluorescence intensity (a.u.)
GCGCTCAATCTCCGGCGTCGGTATCCACTCCAGCAACTCCCGGAGTCACCTAGTGCAG | 11100 fluorescence intensity (a.u.)
CCAGCCACCCACCCACCGGCCTAAACCACGGCGGCCCATTCGGAGTCACCTAGTGCAG | 9360 fluorescence intensity (a.u.)
